The supplement of paper PMC11732987, “Enantioselective OTUD7B fragment discovery through chemoproteomics screening and high-throughput optimisation” (Communications Chemistry, 2025)
The list shows a part of the results. The data scatter; read single values as rough.

Key:
[1] = compound: ClCC(=O)N[C@@H]1CCCc2ccccc12; assay: log2 mean competition ratio of IA-DTB cysteine labelling (DMSO/compound) (log2 ratio); higher = stronger cysteine engagement by compound; settings: treatment time: 4 h, cell line lysate: HEK293T
Experimental: (§1)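 IA-DTB competitive cysteine chemoproteomics in HEK293T RIPA lysate. Lysates were treated with compound 29 or 30 at 50 or 200 µM for 4 h, then IA-DTB (500 µM, 1 h), trypsin-digested, NeutrAvidin-enriched and analysed by diaPASEF. Competition ratio = intensity DMSO / intensity compound (n=4 treated, n=64 DMSO); binding: mean log2 CR ≥ 1 and p ≤ 0.05 plus QC filters. Target is the cysteine site.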

[2] = compound: ClCC(=O)N[C@H]1CCCc2ccccc12; assay: as above; settings: treatment time: 4 h, cell line lysate: HEK293T
Experimental: as §1

| Target | log2 mean competition ratio ([1]; 50 µM) | log2 mean competition ratio ([1]; 200 µM) | log2 mean competition ratio ([2]; 50 µM) | log2 mean competition ratio ([2]; 200 µM) |
| --- | --- | --- | --- | --- |
| DCAKD C135 (UniProt Q8WVC6) | -0.114 | 0.437 | 0.0139 | -0.109 |
| DDX39A C238 (UniProt O00148) | 0.141 | 0.0524 | -0.039 | 0.0419 |
| CTTNBP2NL C76 (UniProt Q9P2B4) | -0.251 | 0.136 | -0.476 | 0.211 |
| CUL5 C188 (UniProt Q93034) | 0.111 | -0.44 | 0.0512 | -0.29 |
| DCUN1D3 C163 (UniProt Q8IWE4) | 0.255 | -0.344 | 0.262 | -0.337 |
| DACH2 C68 | -0.432 | 0.282 | -0.0361 | 0.442 |
| DDX46 C590 | -0.253 | -0.11 | -0.161 | -0.297 |
| CTPS2 C216 (UniProt Q9NRF8) | 0.0637 | 0.0866 | -0.0162 | 0.273 |
| CTBP1 C54 | -0.295 | -0.0551 | -0.281 | -0.0576 |
| CUL9 C1340 (UniProt Q8IWT3) | 0.217 | 0.783 | 0.493 | 0.678 |
| CSPG5 C399 (UniProt O95196) | 0.0699 | 0.337 | 0.186 | 0.17 |
| DDX11 C267 (UniProt Q96FC9) | -0.35 | 0.0947 | -0.614 | 0.000116 |
| CUL7 C1569 (UniProt Q14999) | 0.109 | -0.0961 | -0.228 | 0.0123 |
| CUX1 C802 | -0.377 | -0.0578 | 0.227 | 0.0854 |
| DDX18 C407 (UniProt Q9NVP1) | -0.0751 | -0.0736 | 0.194 | -0.181 |
| CWF19L2 C299 (UniProt Q2TBE0) | 0.138 | 0.0808 | 0.0772 | 0.325 |
| CWF19L2 C214 (UniProt Q2TBE0) | -0.217 | -0.528 | 0.322 | -0.082 |
| CYLD C909 (UniProt Q9NQC7) | -0.205 | 0.297 | -0.299 | 0.243 |
| CSTF3 C646 (UniProt Q12996) | 0.364 | 0.251 | 0.108 | 0.0496 |
| DDX46 C377 | 0.323 | 0.153 | -0.0311 | 0.0299 |
| CREBBP C398 (UniProt Q92793) | 0.642 | -0.233 | 0.523 | -0.385 |
| DDX41 C264 (UniProt Q9UJV9) | -0.0818 | -0.0811 | -0.397 | 0.0352 |
| DACH1 C243 (UniProt Q9UI36) | -0.188 | 0.186 | -0.373 | 0.00409 |
| CRBN C326 (UniProt Q96SW2) | -0.281 | 0.28 | -0.594 | 0.326 |
| CS C101 | -0.151 | -0.0789 | 0.293 | 0.0337 |

Part of the list above, with bars between the fields:
Target | log2 mean competition ratio ([1]; 50 µM) | log2 mean competition ratio ([1]; 200 µM) | log2 mean competition ratio ([2]; 50 µM) | log2 mean competition ratio ([2]; 200 µM)
DCAKD C135 (UniProt Q8WVC6) | -0.114 | 0.437 | 0.0139 | -0.109
DDX39A C238 (UniProt O00148) | 0.141 | 0.0524 | -0.039 | 0.0419
DDX46 C590 | -0.253 | -0.11 | -0.161 | -0.297
CUL9 C1340 (UniProt Q8IWT3) | 0.217 | 0.783 | 0.493 | 0.678
DDX11 C267 (UniProt Q96FC9) | -0.35 | 0.0947 | -0.614 | 0.000116
CSTF3 C646 (UniProt Q12996) | 0.364 | 0.251 | 0.108 | 0.0496
DDX46 C377 | 0.323 | 0.153 | -0.0311 | 0.0299
DACH1 C243 (UniProt Q9UI36) | -0.188 | 0.186 | -0.373 | 0.00409
CRBN C326 (UniProt Q96SW2) | -0.281 | 0.28 | -0.594 | 0.326

Further results

| Target | log2 mean competition ratio ([1]; 50 µM) | log2 mean competition ratio ([1]; 200 µM) | log2 mean competition ratio ([2]; 50 µM) | log2 mean competition ratio ([2]; 200 µM) |
| --- | --- | --- | --- | --- |
| DDX5 C234 (UniProt P17844) | -0.2 | -0.207 | 0.0447 | 0.0284 |
| CWF19L2 C347 (UniProt Q2TBE0) | 0.311 | 0.33 | 0.0242 | 0.281 |
| DEK C222 (UniProt P35659) | 0.0915 | 0.0221 | -0.312 | -0.11 |
| DDX17 C584 (UniProt Q92841) | -0.00797 | 0.296 | 0.0108 | 0.385 |
| DCUN1D1 C115 | -0.123 | -0.335 | 0.107 | -0.317 |
| CTPS1 C491 (UniProt P17812) | -0.0712 | -0.0466 | -0.107 | -0.00481 |
| DCTD C40 | -0.000254 | 0.226 | -0.401 | 0.0178 |
| CUTC C223 (UniProt Q9NTM9) | -0.00446 | -0.0132 | 0.376 | 0.117 |
| CYLD C129 (UniProt Q9NQC7) | -0.288 | -0.0226 | 0.247 | 0.0119 |
| DDX59 C345 (UniProt Q5T1V6) | -0.22 | -0.135 | 0.399 | -0.117 |
| DDX20 C524 (UniProt Q9UHI6) | -0.171 | 0.239 | -0.251 | 0.188 |
| CTTN C112 (UniProt Q14247) | 0.229 | 0.285 | 0.262 | 0.269 |
| CSNK1A1;CSNK1A1L C249;(C249) | 0.133 | 0.0409 | 0.0746 | 0.169 |
| DDA1 C25 (UniProt Q9BW61) | 0.332 | 0.0737 | 0.467 | 0.0866 |
| DAB2IP C404 (UniProt Q5VWQ8) | -0.0568 | 0.0505 | -0.559 | -0.144 |
| DEAF1 C401 (UniProt O75398) | 0.117 | 0.175 | -0.242 | 0.0341 |
| CTIF C556 (UniProt O43310) | 0.545 | -0.0921 | 0.41 | -0.177 |
| CYC1 C139 (UniProt P08574) | 0.13 | -0.035 | 0.136 | -0.0256 |
| CRYL1 C182 (UniProt Q9Y2S2) | -0.166 | 0.137 | -0.249 | -0.0517 |
| CTSB C319 (UniProt P07858) | -0.271 | 0.0848 | -0.243 | -0.0496 |
| CUL2 C465 (UniProt Q13617) | -0.0354 | 0.167 | 0.0724 | 0.134 |
| CTTNBP2 C1225 | -0.27 | 0.18 | -0.175 | 0.0622 |
| CSTF2T C150 (UniProt Q9H0L4) | 0.284 | -0.199 | 0.381 | -0.189 |
| CRIP2 C126 (UniProt P52943) | -0.202 | -0.114 | 0.275 | 0.0531 |
